PubChem BioAssay AID540276 (National Center for Advancing Translational Sciences (NCATS), 2011)
Screen size: about 300,000 compounds; about 5,400 (1.8%) were called active. The inconclusive results got no clear call from the source; some entries with a clear call stand among them for comparison. The call rests on the fitted dose curve; tested in HEK293 cells. Where the call is inconclusive, the potency comes from a doubtful curve fit. The source holds several records for some structures; these can differ, active in one and inactive in another.
Potency means the concentration at half of the fitted maximal effect.

Test: qHTS for inhibitors of binding or entry into cells for Marburg Virus
Details: Marburg virus pseudotyped entry inhibition, cell reporter; series mostly up to 37.8 µM
With `COc1ccc(N(CC(=O)NCCSCc2ccccc2C)S(=O)(=O)c2ccccc2)cc1` the Potency was inconclusive: 14.1 µM [inhibitor, partial curve, poor fit].
With `O=C(C1CCCO1)N1CCN(C(=S)Nc2ccc(Cl)c(Cl)c2)CC1` (centres undefined) the Potency was inconclusive: 3.55 µM [inhibitor, single point].
With `O=C(NCCc1c[nH]c2ccccc12)/C(=C\c1cccnc1)NC(=O)c1ccco1` the Potency was inconclusive: 31.6 µM [activator, single point].
With `O=C(/C=C/c1c(Cl)nc2ccccn12)N1CCCCC1` the Potency was “inactive”.
In the case of `COc1cc(OC)cc(C(=O)Nc2ccc(-c3nc4ccccc4o3)cc2)c1`, the Potency is reported as inconclusive: 11.2 µM [inhibitor, partial curve, poor fit].
For `Cc1cccc(CS(=O)(=O)c2ncc(Cl)c(C(=O)Nc3nc4ccc(F)cc4s3)n2)c1`, the Potency was “inactive”.
In the case of `CC(=O)Nc1cccc(NC(=O)c2c(-c3ccccc3)noc2C)c1`, the Potency is reported as “inactive”.
For `CCCCCCCCCCCCCCCC(=O)OC(CC(=O)O)C[N+](C)(C)C` (centres undefined), the Potency was active: 22.4 µM.
In the case of `O=C(NCCc1ccccc1)c1cccc([N+](=O)[O-])c1`, the Potency is reported as inconclusive: 3.26 µM [activator, single point].
With `Cc1cc(C)cc(NC(=O)C2CCN(c3cc(C)nc4c(-c5ccc(Cl)cc5)c(C)nn34)CC2)c1` the Potency was “inactive”.
With `O=C(CC12CC3CC(CC(Br)(C3)C1)C2)NC1=NCCS1` the Potency was inconclusive: 14.1 µM [activator, single point].
For `CC12CCC(C(=O)N(NC(=O)c3ccccc3Cl)C1=O)C2(C)C` (centres undefined), the Potency was inconclusive: 3.16 µM [inhibitor, partial curve, poor fit].
With `CC(C)(CNC(=O)c1ccc(-c2cccc(C(F)(F)F)c2)o1)N1CCOCC1` the Potency was “inactive”.
In the case of `CCSc1nc(N)c(NC(=O)c2ccc(Br)o2)c(=O)[nH]1`, the Potency is reported as inconclusive: 0.562 µM [inhibitor, partial curve, poor fit].
For `O=C1NN(c2ccccc2)C(=O)/C1=C/c1ccc(-c2cccc(C(=O)O)c2)o1`, the Potency was inconclusive: 7.94 µM [activator, partial curve, poor fit].
With `Cc1ccc(OCCCn2c(=O)sc3ccccc32)cc1` the Potency was inconclusive: 3.55 µM [activator, single point].
For `CSc1cccc(NC(=O)Cn2nc(C)c3sc4ccccc4c3c2=O)c1`, the Potency was inconclusive: 35.5 µM [inhibitor, single point].
In the case of `CCN1CCc2c(sc(NC(=O)c3cc4ccccc4cc3OC)c2C(N)=O)C1`, the Potency is reported as active: 11.2 µM.
In the case of `O=C(/C=C/c1ccco1)Oc1cccc2cccnc12`, the Potency is reported as inconclusive: 10 µM [inhibitor, partial curve].
In the case of `Fc1ccc(COc2ccc(C(=S)N3CCCC3)cc2)cc1`, the Potency is reported as inconclusive: 6.31 µM [activator, single point].
In the case of `CC(=O)c1ccc(OCCOc2ccc([N+](=O)[O-])cc2)cc1`, the Potency is reported as inconclusive: 35.5 µM [activator, single point].
For `O=C(CCS(=O)(=O)c1ccccc1)Nc1cccc(-c2nc3ccccc3s2)c1`, the Potency was inconclusive: 14.6 µM [inhibitor, single point].
With `CCN(CC)c1ccc(CNc2ccc(Br)cn2)cc1` the Potency was inconclusive: 2.82 µM [activator, partial curve, poor fit].
In the case of `COc1ccc(N2C(=O)C3C4c5ccccc5C(C=Nc5ccc(C)cc5C)(c5ccccc54)C3C2=O)cc1` (centres undefined), the Potency is reported as “inactive”.
For `O=c1c2c([nH]n1-c1ccccc1)CCSC2`, the Potency was inconclusive: 35.5 µM [inhibitor, single point].
For `CCC(=O)Nc1ccc(N2CCCCC2)c(C(=O)Nc2ccccc2C)c1`, the Potency was inconclusive: 0.13 µM [inhibitor, single point].
In the case of `O=C(Nc1cc([N+](=O)[O-])ccc1Cl)c1cccnc1`, the Potency is reported as inconclusive: 10 µM [activator, partial curve, poor fit].
For `COc1cc2ccccc2cc1C(=O)N1CCOCC1`, the Potency was inconclusive: 15.8 µM [activator, single point].
With `COc1cccc(N2CCN(c3c(C#N)c(C(F)(F)F)nn3C)CC2)c1` the Potency was inconclusive: 35.5 µM [inhibitor, single point].
For `C[C@@H]1C[C@](C)(C(=O)c2ccc3c(c2)OCO3)C=C1c1ccc2c(c1)OCO2`, the Potency was inconclusive: 0.0038 µM [inhibitor, full curve, poor fit].
With `CC1(C)C/C(=N\NC(=S)Nc2ccccc2F)c2cc(O)ccc2O1` the Potency was inconclusive: 14.1 µM [inhibitor, partial curve, poor fit].
With `COc1ccc(CN2CCN(S(=O)(=O)c3ccc(NC(C)=O)cc3)CC2)cc1OC` the Potency was “inactive”.
In the case of `COc1ccccc1-c1cc(C(F)(F)F)nc(NCc2ccco2)n1`, the Potency is reported as inconclusive: 8.2 µM [inhibitor, partial curve].
For `Nc1c(-c2nc(-c3ccccc3)cs2)c2ccccn2c1C(=O)c1ccc2c(c1)OCO2`, the Potency was inconclusive: 3.98 µM [activator, single point].
With `C/C(CCN1CCCCc2nc(C)c(C)cc21)=N\O[C@H](C)CN1CCCc2nc(C)c(C)cc21` the Potency was inconclusive: 0.0335 µM [inhibitor, full curve, poor fit].
With `O=C(N/N=C/c1cc(Br)ccc1O)c1ccccc1Cl` the Potency was inconclusive: 3.16 µM [inhibitor, full curve].
For `CCN1C(C(=O)c2ccccc2)=C(OC(=O)COc2ccccc2)c2ccccc2S1(=O)=O`, the Potency was “inactive”.
In the case of `CCCCCn1c(=O)c2ccccc2n2c(CCl)nnc12`, the Potency is reported as “inactive”.
In the case of `CCc1ccc(NC(=O)COC(=O)c2nc3nc(C)cc(C)n3n2)cc1`, the Potency is reported as inconclusive: 2.82 µM [activator, full curve].
In the case of `Cc1ccc(OCCSc2ncnc3sc(C)c(C)c23)cc1C`, the Potency is reported as inconclusive: 3.16 µM [activator, single point].
For `Cc1csc(NC(=O)c2ccc(-c3ccc(Cl)cc3Cl)o2)n1`, the Potency was inconclusive: 6.31 µM [inhibitor, full curve].
In the case of `Cc1nn(C)c(C(=O)NNC(=S)Nc2ccc(Cl)cc2)c1[N+](=O)[O-]`, the Potency is reported as inconclusive: 25.9 µM [activator, single point].
For `Cc1nc(N2CCC(C)CC2)c2c(C)c(C(=O)Nc3ccc(C)c(F)c3)sc2n1`, the Potency was inconclusive: 0.562 µM [inhibitor, full curve, poor fit].
With `COC(=O)C1C(=O)C=C(Nc2ccc(F)cc2)CC1c1ccc(OC)cc1` (centres undefined) the Potency was inconclusive: 4.61 µM [activator, full curve].
With `CCOCN(C(=O)Cn1c(CO)nc2ccccc21)c1c(C)cccc1CC` the Potency was inconclusive: 18.3 µM [inhibitor, partial curve, poor fit].
In the case of `O=C1C2CC=CCC2C(=O)N1CC(=O)N(Cc1ccccc1)C1CCS(=O)(=O)C1` (centres undefined), the Potency is reported as inconclusive: 1.46 µM [activator, full curve, poor fit].
For `COc1ccc(OC)c2c1cc(C(=O)N[C@H](C(=O)N1CCC(C(=O)O)CC1)C(C)C)n2C`, the Potency was inconclusive: 3.55 µM [activator, full curve, poor fit].
In the case of `Cc1ccc(N(C)C(=O)n2cnc3ccccc32)cc1`, the Potency is reported as inconclusive: 5.62 µM [activator, single point].
With `CCOC(=O)c1cc(-c2ccccc2)sc1NC(=O)C(C)Sc1nnc(N)s1` (centres undefined) the Potency was inconclusive: 11.2 µM [inhibitor, partial curve, poor fit].
For `COc1ccc(CN(C(=O)CSc2nnc(-c3ccccc3C)o2)c2ccc(F)cc2)cc1`, the Potency was inconclusive: 8.91 µM [inhibitor, partial curve, poor fit].
For `NC1=NC(=O)C(Cc2cccc(Cl)c2)S1` (centres undefined), the Potency was inconclusive: 0.501 µM [inhibitor, full curve, poor fit].
In the case of `COc1ccc(C)cc1S(=O)(=O)N1CCC(C(=O)NCCc2ccccc2)CC1`, the Potency is reported as inconclusive: 6.31 µM [inhibitor, single point].
With `c1ccc(CCc2nc(-c3ccccc3)no2)cc1` the Potency was “inactive”.
With `COc1cccc(NC(=O)CN(C)C(=O)C2=COCCO2)c1` the Potency was inconclusive: 17.8 µM [activator, single point].
For `CN(C)C(=O)Nc1ccccc1`, the Potency was “inactive”.
With `Cc1cc(C(=O)CSc2nc3ccccc3c(=O)[nH]2)c(C)n1CC1CCCO1` (centres undefined) the Potency was inconclusive: 12.6 µM [inhibitor, partial curve, poor fit].
In the case of `Cc1cc(OCC(C)C)ccc1/C(O)=C1/C(=O)C(=O)N(Cc2cccnc2)C1c1ccncc1` (centres undefined), the Potency is reported as inconclusive: 31.6 µM [activator, single point].
In the case of `COc1ccc(N(C)C(=O)C2CCN(S(=O)(=O)c3cccc4nsnc34)CC2)cc1`, the Potency is reported as inconclusive: 22.4 µM [inhibitor, single point].
For `COc1cc(NC(=O)COC(=O)c2ccccc2F)cc(OC)c1`, the Potency was inconclusive: 1.26 µM [activator, single point].
In the case of `CCOc1ccccc1NC(=O)NC1(C(=O)NCc2cccnc2)CCCCC1`, the Potency is reported as “inactive”.
In the case of `COc1cccc(NS(=O)(=O)c2ccc3c(c2)CCN3C(C)=O)c1`, the Potency is reported as inconclusive: 10 µM [inhibitor, partial curve, poor fit].
For `CSc1ccccc1NC(=O)c1cc(S(=O)(=O)N(C)C)ccc1N1CCCC1`, the Potency was “inactive”.
In the case of `COc1ccc(C)cc1NC(=O)CN1CCN(S(=O)(=O)c2ccc(Cl)cc2)CC1`, the Potency is reported as inconclusive: 3.98 µM [activator, partial curve, poor fit].
In the case of `COc1ccc2c(CC(=O)Nc3cccc(S(=O)(=O)N4CCOCC4)c3)coc2c1`, the Potency is reported as inconclusive: 35.5 µM [inhibitor, single point].
